Source: PubChem BioAssay AID1259425 (University of Nebraska Medical Center, 2018)

- Purpose: 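Seek colon cancer weak points whose silencing resembles KSR1 loss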 (primary screen)
- Cell system: HCT116 human colon cancer cells
- Knock-down reagent: siRNA pool against human genes, 50 nM siRNA
- Measurement: 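After 50 nM siRNA pool, branched-DNA assay measures six marker transcripts per well, minus blank, normalised to the geometric mean of two housekeeping transcripts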
- Scale: BNIP3L mRNA: higher = more BNIP3L transcript after knockdown
Shown is one part, drawn at random, of about 14,000 deposited reagents. Not all columns of the deposit are shown. Not given: the time to read-out.

CNRIP1 (cannabinoid receptor interacting protein 1) — BNIP3L mRNA, set 1: 0.122
SAMD4A (sterile alpha motif domain containing 4A) — BNIP3L mRNA, set 1: 0.1
ODF1 (outer dense fiber of sperm tails 1) — BNIP3L mRNA, set 1: 0.208
CRADD (CARD and death domain containing adaptor protein) — BNIP3L mRNA, set 1: 0.175
FNDC3B (fibronectin type III domain containing 3B) — BNIP3L mRNA, set 1: 0.606
CRISPLD1 (cysteine rich secretory protein LCCL domain containing 1) — BNIP3L mRNA, set 1: 0.257
P3H3 (prolyl 3-hydroxylase 3) — BNIP3L mRNA, set 1: 0.19
TBXA2R (thromboxane A2 receptor) — BNIP3L mRNA, set 1: 0.149

Not a retest: entries from further up.
CRISPLD1 (cysteine rich secretory protein LCCL domain containing 1) — BNIP3L mRNA, set 1: 0.257
P3H3 (prolyl 3-hydroxylase 3) — BNIP3L mRNA, set 1: 0.19

The list goes on:
KIAA0753 — BNIP3L mRNA, set 1: 0.103
CSRP2 (cysteine and glycine rich protein 2) — BNIP3L mRNA, set 1: 0.138
CXCL13 (C-X-C motif chemokine ligand 13) — BNIP3L mRNA, set 1: 0.0917
SYNE3 (spectrin repeat containing nuclear envelope family member 3) — BNIP3L mRNA, set 1: 0.187
